PubChem BioAssay AID1508588 – Peter MacCallum Cancer Centre – 2020

Assay: 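Genome-wide search for knock-downs that heighten vemurafenib action in melanoma cells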 (primary screen)
Cells: human WM266.4 melanoma cells (BRAF V600 mutant)
Reagent: siRNA pool against human genes, 40 nM
Duration: 96 h from transfection to read-out
Challenge: vemurafenib 300 nM (about IC25), added 48 h after transfection, for 48 h; comparison arm got DMSO vehicle only
Detection: 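Ratios to non-targeting siRNA for cell gain, counted as DAPI nuclei after minus before drug and averaged over two replicates, and for absorbance-read medium lactate per cell; both binned into fold-change classes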
Reading the numbers: cell gain with vemurafenib: higher = more cell gain than with non-targeting siRNA; lactate per cell with vemurafenib: higher = more lactate made per cell
Active means: 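a knock-down counts as enhancing when its fold-change classes with vehicle and with vemurafenib, taken together, show a stronger drug effect on cell gain or lactate per cell; exact class pairs not stated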
Meaning of the calls: active = enhances vemurafenib effect; inactive = no enhancement seen
Here is an unselected part of about 18,000 reagents tested. 790 of all reagents (4.4%) were called active. 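Calls rest on a combination of fold-change classes in drug and vehicle arms, not all shown here.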 Reagent sequences are not shown.

| target | PubChem SID | cell gain with vemurafenib | lactate per cell with vemurafenib | Outcome |
| --- | --- | --- | --- | --- |
| CDC45 | SID56478592 | 0.3 | 1.23 | inactive |
| HNRNPA2B1 | SID152148213 | 0.16 | 1.57 | inactive |
| PUS7L | SID152151520 | 0.72 | 0.68 | inactive |
| UHMK1 | SID152150381 | 0.09 | 0.29 | active |
| FILIP1L | SID152151537 | 0.75 | 0.68 | inactive |
| OTUD7B | SID135621615 | 1.01 | 0.86 | inactive |
| C8A | SID135622059 | 0.43 | 0.7 | inactive |
| MPHOSPH6 | SID152149087 | 0.84 | 0.92 | inactive |
| CDC37 | SID56478591 | 1.19 | 1.08 | inactive |
| GATA2 | SID134313861 | 0.29 | 0.82 | inactive |
| MS4A6E | SID134321229 | 0.38 | 1.43 | inactive |
| ZNF831 | SID152147661 | 0.54 | 0.21 | inactive |
| GABRA4 | SID134311584 | 0.47 | 1.71 | inactive |
| TNFRSF13C | SID134317649 | 0.81 | 0.7 | inactive |
| ZNF26 | SID134325023 | 0.98 | 0.86 | inactive |
| ZNF823 | SID152155009 | 0.96 | 0.57 | inactive |
| NUBPL | SID152156377 | 0.55 | 1.28 | inactive |
| ECE1 | SID134311284 | 0.26 | 0.82 | inactive |
| MBOAT7 | SID152152836 | 0.76 | 0.93 | inactive |
| VAMP5 | SID135623375 | 0.6 | 0.65 | inactive |
| LAMP1 | SID135622540 | 0.65 | 0.76 | inactive |
| FAXDC2 | SID152154305 | 0.6 | 0.76 | inactive |
| GOLGA7 | SID152154386 | 1.17 | 1.22 | inactive |
| PDE1A | SID152152725 | 0.94 | 0.71 | inactive |
| TSPAN11 | SID135625351 | 0.73 | 0.71 | inactive |
| FN1 | SID134314553 | 0.83 | 0.94 | inactive |
| ALG8 | SID152156636 | 0.98 | 0.28 | inactive |
| TMOD3 | SID134321577 | 0.42 | 0.83 | inactive |
| GAMT | SID134321154 | 1.4 | 0.55 | inactive |
| GPAT2 | SID152151554 | 0.66 | 0.89 | inactive |
| ZFAND4 | SID134321671 | 0.57 | 0.56 | inactive |
| TRIM32 | SID135621277 | 1.06 | 0.77 | inactive |
| NCMAP | SID152150681 | 0.56 | 1.57 | inactive |
| SLITRK1 | SID134325163 | 0.64 | 0.57 | inactive |
| NUAK2 | SID56479046 | 0.72 | 1.36 | inactive |
| RBM25 | SID152155560 | 0.22 | 1.94 | inactive |
| HMX1 | SID152155920 | 0.75 | 0.92 | inactive |
| FRRS1 | SID152149060 | 0.44 | 0.94 | inactive |
| SCML1 | SID152155676 | 0.21 | 0.99 | inactive |
| TLCD3B | SID152154709 | 0.43 | 2.04 | inactive |
| METRNL | SID152156645 | 0.21 | 0.88 | inactive |
| UBALD1 | SID152151303 | 0.17 | 1.62 | inactive |
| HERC2P3 | SID135625254 | 0.2 | 1.61 | inactive |
| DSP | SID135623838 | 0.81 | 0.5 | inactive |
| PRR15 | SID134321945 | 0.02 | 3.85 | inactive |
| MPZ | SID152148667 | 0.47 | 1.01 | inactive |
| VIT | SID135623008 | 0.78 | 0.66 | inactive |
| WWP2 | SID134310338 | 0.61 | 0.6 | inactive |
| PSD2 | SID152147946 | 0.87 | 1.17 | inactive |
| IRAK2 | SID152151590 | 0.61 | 0.74 | inactive |
| RPP38-DT | SID134320600 | 0.07 | 2.24 | inactive |
| SLC25A35 | SID152155082 | 0.96 | 0.15 | active |
| FILIP1 | SID134318074 | 0.44 | 1.16 | inactive |
| CLPP | SID152147931 | 0.63 | 1.13 | inactive |
| STOX1 | SID135623269 | 0.89 | 0.62 | inactive |
| HERPUD2 | SID134322148 | 0.87 | 0.77 | inactive |
| AGBL1 | SID135623267 | 0.42 | 0.64 | inactive |
| TWIST1 | SID152154759 | 0.63 | 1.47 | inactive |
| ZNF835 | SID135624414 | 0.53 | 0.84 | inactive |
| COP1 | SID152153548 | 0.99 | 0.64 | inactive |
| ALCAM | SID152150302 | 0.46 | 1.09 | inactive |
| GYS2 | SID152147110 | 0.44 | 1.19 | inactive |
| CC2D1B | SID152149207 | 0.89 | 0.76 | inactive |
| DOK6 | SID152149657 | 0.53 | 1.25 | inactive |
| DIRC1 | SID134319223 | 0.39 | 1.06 | inactive |
| SLC22A24 | SID134312413 | 0.15 | 1.48 | inactive |
| FFAR3 | SID134311014 | 0.31 | 1.5 | inactive |
| DGKK | SID135624472 | 0.71 | 1.27 | inactive |
| GTF3C4 | SID152154960 | 0.82 | 1.1 | inactive |
| FAP | SID135620746 | 0.62 | 0.5 | inactive |
| DHFR2 | SID152153987 | 0.51 | 0.98 | inactive |
| LILRA1 | SID134323623 | 0.02 | 1.23 | inactive |
| MAMLD1 | SID152146894 | 0.44 | 0.54 | inactive |
| MCAT | SID135622693 | 0.51 | 1.15 | inactive |
| ELMOD3 | SID134320931 | 0.35 | 0.24 | inactive |
| USP19 | SID152147392 | 0.76 | 0.48 | inactive |
| SLC35F5 | SID134315235 | 0.73 | 0.76 | inactive |
| TACR2 | SID152148182 | 0.47 | 0.82 | inactive |
| ILDR2 | SID134329254 | 0.94 | 0.76 | inactive |
| GH2 | SID134315990 | 0.57 | 0.78 | inactive |
| PKN1 | SID56478783 | 0.78 | 1.21 | inactive |
| TSACC | SID152150595 | 0.16 | 2.84 | inactive |
| CHST9 | SID152151492 | 0.11 | 1.22 | inactive |
| SLC1A1 | SID152155971 | 0.66 | 1 | inactive |
| SGCE | SID152151832 | 0.61 | 0.64 | inactive |
| SPRED1 | SID134320621 | 0.75 | 1.04 | inactive |
| KCNMB3 | SID134313728 | 0.38 | 1.23 | inactive |
| PAPPA | SID152150776 | 0.7 | 0.72 | inactive |
| LOC642219 (retired record) | SID152149501 | 1.03 | 0.72 | inactive |
| AKR1C1 | SID152156758 | 0.7 | 0.28 | active |
| H2BC8 | SID134321248 | 0.56 | 0.24 | inactive |
| TIGD1 | SID134321372 | 0.88 | 0.49 | active |
| GIPR | SID134310957 | 1.22 | 0.7 | inactive |
| PIK3R3 | SID56479284 | 0.7 | 1 | inactive |
| CYB5R4 | SID152149884 | 0.32 | 1.68 | inactive |
| RAB38 | SID134314706 | 0.03 | 1.54 | inactive |
| GNAT1 | SID134314535 | 0.96 | 0.98 | inactive |
| RYR3 | SID152155888 | 0.94 | 0.9 | inactive |
| PTPRG | SID56479207 | 0.73 | 0.87 | inactive |
| GPR39 | SID152148687 | 0.1 | 1.44 | inactive |
| PKD1 | SID134312703 | 0.49 | 1.38 | inactive |
| LRBA | SID152152508 | 0.8 | 0.8 | inactive |
| MCCC1 | SID152150367 | 0.5 | 0.77 | inactive |
| PGA3 | SID135625471 | 0.12 | 0.99 | inactive |
| METTL26 | SID135623256 | 0.64 | 0.96 | inactive |
| GPRASP3 | SID134326164 | 0.78 | 0.63 | inactive |
| RNF185 | SID152149412 | 0.95 | 0.7 | inactive |

Called active (from the list above):
| target | PubChem SID | cell gain with vemurafenib | lactate per cell with vemurafenib | Outcome |
| --- | --- | --- | --- | --- |
| UHMK1 | SID152150381 | 0.09 | 0.29 | active |
| SLC25A35 | SID152155082 | 0.96 | 0.15 | active |
| AKR1C1 | SID152156758 | 0.7 | 0.28 | active |
| TIGD1 | SID134321372 | 0.88 | 0.49 | active |
